{
  "source": "patent US12060349B2",
  "about": "“Glucosylceramide synthase inhibitors” (Genzyme Corporation, priority 2012, dated 2024)",
  "key": {"[1]": {"test_system": "GM3 expression on the cell surface, C32 human melanoma cells", "experiment": "cell based phenotypic assay, cell surface GM3 by antibody mediated immunofluorescence, C32 (GM3 C32 IC50)", "details": "50% inhibition of GM3 expression on the cell surface", "protocol": "(§1) The cell based assay was performed in two different cell types, B16 and C32. Cell viability was also assessed in the second, cell-based assay.\n(§2) The “Compound Number” in the table corresponds to the compound disclosed in the Example of the same number. […] The results of the cell based assays (performed in two different cell systems, i.e. B16 mouse melanoma or C32 human melanoma cells) are expressed as “GM3 B16 IC50” or “GM3 C32 IC50” for the B16 assay and the C32 assay, respectively. […] The results of the viability assays are expressed as “Viability, B16 IC50” or “Viability, C32 IC50”, respectively. These values represent the concentration of the compound causing 50% cell death. Values greater than 10 represent a lack of cell death."}, "B16 mouse melanoma cells": {"test_system": "B16 mouse melanoma cells", "experiment": "cell viability in the B16 cell-based assay (Viability, B16 IC50)", "details": "concentration causing 50% cell death, values greater than 10 represent a lack of cell death", "protocol": "as §1, §2"}, "[2]": {"target": "T1, glucosylceramide synthase (Homo sapiens, UniProt Q16739)", "T1 construct": "Microsomes were isolated from A375 human melanoma cells; endogenous in cells; host or cells: A375 human melanoma cells (microsomal fraction, 100,000 g pellet)", "T1 sequence (Q16739 1-394)": "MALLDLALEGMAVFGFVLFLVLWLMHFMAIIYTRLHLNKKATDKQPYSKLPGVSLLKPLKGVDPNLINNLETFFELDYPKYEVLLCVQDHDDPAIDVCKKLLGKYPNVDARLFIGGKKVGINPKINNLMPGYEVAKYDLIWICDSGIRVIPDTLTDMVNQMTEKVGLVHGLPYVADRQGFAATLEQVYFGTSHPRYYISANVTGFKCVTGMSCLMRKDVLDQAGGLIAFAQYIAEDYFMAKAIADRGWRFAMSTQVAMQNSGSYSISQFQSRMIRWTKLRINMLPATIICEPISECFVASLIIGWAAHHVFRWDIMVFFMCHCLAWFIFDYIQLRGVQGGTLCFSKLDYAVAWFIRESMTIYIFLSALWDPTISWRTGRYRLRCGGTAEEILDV", "experiment": "microsomal assay measuring conversion of ceramide to glucosylceramide by HPLC (GCS IC50)", "assay_type": "biochemical", "details": "concentration causing 50% inhibition of glucosylceramide synthase activity", "protocol": "Inhibition of glucosylceramide synthase activity for certain compounds of the invention were measured with 1) a microsomal assay that directly measures the conversion of ceramide to glucosylceramide by HPLC and 2) second, cell based, phenotypic assay that monitors cell surface expression of the downstream lipid GM3 by antibody mediated immunofluorescence. The cell based assay was performed in two different cell types, B16 and C32. Cell viability was also assessed in the second, cell-based assay.\nThe “Compound Number” in the table corresponds to the compound disclosed in the Example of the same number. The results of the microsomal assay are expressed as “GCS IC50”, which represents the concentration of the compound causing 50% inhibition of glucosylceramide synthase activity. The results of the cell based assays (performed in two different cell systems, i.e. B16 mouse melanoma or C32 human melanoma cells) are expressed as “GM3 B16 IC50” or “GM3 C32 IC50” for the B16 assay and the C32 assay, respectively. These values represent the concentration of the compound causing 50% inhibition of GM3 expression on the cell surface. The results of the viability assays are expressed as “Viability, B16 IC50” or “Viability, C32 IC50”, respectively. These values represent the concentration of the compound causing 50% cell death. Values greater than 10 represent a lack of cell death."}, "C32 human melanoma cells": {"test_system": "C32 human melanoma cells", "experiment": "cell viability in the C32 cell-based assay (Viability, C32 IC50)", "details": "concentration causing 50% cell death, values greater than 10 represent a lack of cell death", "protocol": "as §1, §2"}, "[3]": {"test_system": "GM3 expression on the cell surface, B16 mouse melanoma cells", "experiment": "cell based phenotypic assay, cell surface GM3 by antibody mediated immunofluorescence, B16 (GM3 B16 IC50)", "details": "50% inhibition of GM3 expression on the cell surface", "protocol": "as §1, §2"}},
  "data": [
    {"smiles": "COCCOc1ccc(Oc2cnc(N3CCC(F)(C(=O)NC4(C)CN5CCC4CC5)CC3)nc2)cc1", "note": "(centres unmarked) [Example 131, 4-Fluoro-1-(5-(4-(2-methoxyethoxy)phenoxy)pyrimidin-2-yl)-N-(3-methylquinuclidin-3-yl)piperidine-4-carboxamide]", "values": [
      {"measurement": "IC50", "setting": "[1]", "value": 0.000858, "unit": "µM"},
      {"measurement": "IC50", "setting": "B16 mouse melanoma cells", "value": "≥ 10", "unit": "µM"},
      {"measurement": "IC50", "setting": "[2]", "value": 0.00681, "unit": "µM"},
      {"measurement": "IC50", "setting": "C32 human melanoma cells", "value": 1, "unit": "µM"},
      {"measurement": "IC50", "setting": "[3]", "value": 0.0527, "unit": "µM"}
    ]}
  ]
}
